No constants are given. Whether binding was seen depends on the method and setting. Some entries that bind do so weakly or less than the wild type.
Key:
[1] = molecular target: UVR8 core domain (residues 12–381, UVR8^12–381) (Arabidopsis thaliana) (UniProt Q9FN03); test: native MS; native ion mobility MS with nESI, sample solution illuminated in the ion source tip with a 280-nm LED (25 mW, 350 mA): 10 s for UVR8 12-381, 1 s for full-length UVR8; both purified
[2] = molecular target: full-length UVR8 (UV … LOCUS8) (Arabidopsis thaliana) (UniProt Q9FN03); test: as above
[3] = molecular target: T1, full-length UVR8 (UV … LOCUS8) (Arabidopsis thaliana), Q9FN03; test: native MS; collisional activation before ion mobility (aIMS) and CID of mass-selected dimer ions in the gas phase, in the absence of UV-B light; trap collision voltage 4 to 150 V; both purified; details: remark: other sources report otherwise
T1 chain: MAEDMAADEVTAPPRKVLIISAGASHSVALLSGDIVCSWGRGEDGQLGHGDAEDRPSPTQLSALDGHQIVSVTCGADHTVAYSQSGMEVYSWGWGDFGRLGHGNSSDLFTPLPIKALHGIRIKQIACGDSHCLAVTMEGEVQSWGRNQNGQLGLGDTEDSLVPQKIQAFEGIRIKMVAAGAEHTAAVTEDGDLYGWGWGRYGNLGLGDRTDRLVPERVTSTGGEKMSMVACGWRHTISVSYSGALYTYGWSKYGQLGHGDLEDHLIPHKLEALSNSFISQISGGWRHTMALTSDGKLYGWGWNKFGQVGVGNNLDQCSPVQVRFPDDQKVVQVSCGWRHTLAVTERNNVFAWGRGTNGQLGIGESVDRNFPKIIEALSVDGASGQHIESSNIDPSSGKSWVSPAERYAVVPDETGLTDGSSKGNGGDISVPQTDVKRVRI

[4] = molecular target: T1, full-length UVR8 (UV … LOCUS8) …; test: native MS; gas phase illumination of trapped ions with a 266-nm Nd:YAG laser (10 Hz, 0.4–1 mJ per pulse, 10–20 shots); both purified; details: remark: other sources report otherwise

B1: UVR8 core domain (residues 12–381, UVR8^12–381) (domain or fragment, Arabidopsis thaliana, UniProt Q9FN03 12-381, looked up)
chain: APPRKVLIISAGASHSVALLSGDIVCSWGRGEDGQLGHGDAEDRPSPTQLSALDGHQIVSVTCGADHTVAYSQSGMEVYSWGWGDFGRLGHGNSSDLFTPLPIKALHGIRIKQIACGDSHCLAVTMEGEVQSWGRNQNGQLGLGDTEDSLVPQKIQAFEGIRIKMVAAGAEHTAAVTEDGDLYGWGWGRYGNLGLGDRTDRLVPERVTSTGGEKMSMVACGWRHTISVSYSGALYTYGWSKYGQLGHGDLEDHLIPHKLEALSNSFISQISGGWRHTMALTSDGKLYGWGWNKFGQVGVGNNLDQCSPVQVRFPDDQKVVQVSCGWRHTLAVTERNNVFAWGRGTNGQLGIGESVDRNFPKIIEALSVDG
notes: Homodimer in the dark, monomer after UV-B; also called truncated UVR8; source: E. coli Rosetta 2 (DE3) pLysS, purified (Ni-NTA, Strep-Tactin XT, cleaved from the resin with SUMO protease); not shown: 7xHis, N-terminal, cleaved; Strep II, N-terminal, cleaved; SUMO, N-terminal, cleaved
B1 was tested, and the binding [1] was “binds weakly”.

B2: full-length UVR8 (UV … LOCUS8) (protein, UniProt Q9FN03 1-440)
chain: T1 chain
With B2 the binding [2] was “binds weakly”.

B3: full-length UVR8 (UV … LOCUS8), Q9FN03 1-440 (natural protein)
chain: T1 chain
With B3 the binding [3] was “binds” and the binding [4] was “binds”.

— publication PMC6347689, “Native mass spectrometry reveals the conformational diversity of the UVR8 photoreceptor” (Proceedings of the National Academy of Sciences of the …, 2019)
